Assay results as given in paper PMC9933715 (Antimicrobial Agents and Chemotherapy, 2023).
Read-outs that look alike come from different tables or passages of the source.

Assays:
[1] = system: DENV-R2A (Rluc-expressing DENV, serotype 2 strain 16681); assay: microbe, parasite or virus in culture; type: cell-based, Dengue virus; conditions: for activity at 50 µM: Dengue virus, Huh7.5, 48 h
Huh7.5 cells = assay: Cell viability, CellTiter-Glo luminescent assay

O=C(Nc1ccccc1)c1ccccc1 [Compound 66]
activity at 50 µM ([1]; read-out: DENV-R2A replication (Fold DMSO), 6A1HI analogues, test concentration = 50 µM, Huh7.5 cells): 83%
activity at 50 µM ([1]; read-out: DENV-R2A replication (fold DMSO), Table 1, NPP3C analogues, 50 μM, Huh7.5, 2 days postinfection): 134%
antiviral activity against DENV-R2A (SAR, in words) ([1]; NPP3C analogues, 50 μM): abrogated the antiviral activity
Cell viability (Fold DMSO) (Huh7.5 cells; 6A1HI analogues, test concentration = 50 µM, Huh7.5 cells): 1.01 Fold DMSO
Cell viability (Fold DMSO) (Huh7.5 cells; Table 1, NPP3C analogues, 50 μM, Huh7.5, 2 days): 0.88 fold DMSO
Cell viability (Fold DMSO) (Huh7.5 cells; Table S3, NPP3C analogues, 50 µM, Huh7.5): 0.88 Fold DMSO
